These are yes or no findings as the source states them, for the method shown. Some entries that bind do so weakly or less than the wild type. Sequences can lack the tags named with a protein.

Here are results for 1 molecule from PMC10803289, “Transport and inhibition mechanism of the human SGLT2–MAP17 glucose transporter” (Nature Structural & Molecular Biology, 2023).

Assay [1] addresses T1, human sodium–glucose cotransporter 2 (hSGLT2), His10–sfGFP tag cleaved (human) (UniProt P31639).
T1 sequence (chain, N-glycan attached to N250): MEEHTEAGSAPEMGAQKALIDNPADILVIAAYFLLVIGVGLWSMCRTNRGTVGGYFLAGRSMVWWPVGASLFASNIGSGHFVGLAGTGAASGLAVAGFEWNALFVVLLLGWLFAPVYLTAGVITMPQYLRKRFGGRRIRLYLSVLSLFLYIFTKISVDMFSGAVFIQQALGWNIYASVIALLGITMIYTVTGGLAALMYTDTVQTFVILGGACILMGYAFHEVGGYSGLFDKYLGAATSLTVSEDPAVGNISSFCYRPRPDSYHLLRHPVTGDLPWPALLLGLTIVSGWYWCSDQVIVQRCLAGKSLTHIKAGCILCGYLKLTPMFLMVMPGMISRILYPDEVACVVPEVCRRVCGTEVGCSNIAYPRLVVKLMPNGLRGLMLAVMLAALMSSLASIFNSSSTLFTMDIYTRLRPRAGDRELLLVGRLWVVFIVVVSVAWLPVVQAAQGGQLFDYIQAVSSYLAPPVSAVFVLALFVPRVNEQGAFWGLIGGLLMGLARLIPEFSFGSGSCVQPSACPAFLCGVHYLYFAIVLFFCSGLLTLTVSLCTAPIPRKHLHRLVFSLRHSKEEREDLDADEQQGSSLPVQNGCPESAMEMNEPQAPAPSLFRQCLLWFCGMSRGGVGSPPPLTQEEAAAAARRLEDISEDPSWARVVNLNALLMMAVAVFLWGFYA
The experiment in a line: cryo-EM structure; co-expressed hSGLT2–MAP17 complex purified in DDM micelles (20 mM HEPES–NaOH pH 7.5, 150 mM NaCl, 0.03% DDM) with 0.5 mM canagliflozin, dapagliflozin, TA-1887, sotagliflozin or phlorizin; single-particle analysis; outward-facing (four gliflozins) and inward-open (phlorizin) conformations; both purified.

The target of assay [2] is T2, sfGFP-tagged human sodium–glucose cotransporter 2 (hSGLT2) (human) (UniProt P31639).
T2 sequence: T1 sequence (chain, N-glycan attached to N250)
The experiment in a line: SEC; fluorescence-detection SEC (FSEC) of detergent-solubilized Expi293 cells expressing sfGFP-tagged hSGLT2 with or without MAP17; ACQUITY UPLC BEH450 SEC column; GFP fluorescence monitored.

B1: human MAP17 (protein, UniProt Q13113 1-114)
chain: MSALSLLILGLLTAVPPASCQQGLGNLQPWMQGLIAVAVFLVLVAIAFAVNHFWCQEEPEPAHMILTVGNKADGVLVGTDGRYSSMAASFRSSEHENAYENVPEEEGKVRSTPM
B1: the binding result in assay [1] and in assay [2] was “binds” each time.
